This note sets out measurements from paper doi:10.1101/2020.02.07.938530.

Chains of the proteins cited; added tags and fusions are not shown.
UniProt Q12158: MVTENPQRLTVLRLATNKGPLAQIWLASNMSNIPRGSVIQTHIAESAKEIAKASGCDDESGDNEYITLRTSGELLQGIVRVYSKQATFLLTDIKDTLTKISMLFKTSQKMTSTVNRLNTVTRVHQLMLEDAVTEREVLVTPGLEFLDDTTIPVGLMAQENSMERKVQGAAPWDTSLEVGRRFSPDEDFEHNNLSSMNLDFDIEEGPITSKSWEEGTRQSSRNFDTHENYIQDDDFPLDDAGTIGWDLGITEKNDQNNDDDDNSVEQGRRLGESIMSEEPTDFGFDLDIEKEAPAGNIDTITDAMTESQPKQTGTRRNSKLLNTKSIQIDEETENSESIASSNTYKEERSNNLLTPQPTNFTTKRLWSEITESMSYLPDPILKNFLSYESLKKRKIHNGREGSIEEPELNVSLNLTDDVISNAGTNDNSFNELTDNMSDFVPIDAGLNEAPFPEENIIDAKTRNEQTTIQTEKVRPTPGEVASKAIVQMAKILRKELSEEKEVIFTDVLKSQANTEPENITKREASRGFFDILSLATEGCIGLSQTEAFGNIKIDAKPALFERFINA
UniProt P47037: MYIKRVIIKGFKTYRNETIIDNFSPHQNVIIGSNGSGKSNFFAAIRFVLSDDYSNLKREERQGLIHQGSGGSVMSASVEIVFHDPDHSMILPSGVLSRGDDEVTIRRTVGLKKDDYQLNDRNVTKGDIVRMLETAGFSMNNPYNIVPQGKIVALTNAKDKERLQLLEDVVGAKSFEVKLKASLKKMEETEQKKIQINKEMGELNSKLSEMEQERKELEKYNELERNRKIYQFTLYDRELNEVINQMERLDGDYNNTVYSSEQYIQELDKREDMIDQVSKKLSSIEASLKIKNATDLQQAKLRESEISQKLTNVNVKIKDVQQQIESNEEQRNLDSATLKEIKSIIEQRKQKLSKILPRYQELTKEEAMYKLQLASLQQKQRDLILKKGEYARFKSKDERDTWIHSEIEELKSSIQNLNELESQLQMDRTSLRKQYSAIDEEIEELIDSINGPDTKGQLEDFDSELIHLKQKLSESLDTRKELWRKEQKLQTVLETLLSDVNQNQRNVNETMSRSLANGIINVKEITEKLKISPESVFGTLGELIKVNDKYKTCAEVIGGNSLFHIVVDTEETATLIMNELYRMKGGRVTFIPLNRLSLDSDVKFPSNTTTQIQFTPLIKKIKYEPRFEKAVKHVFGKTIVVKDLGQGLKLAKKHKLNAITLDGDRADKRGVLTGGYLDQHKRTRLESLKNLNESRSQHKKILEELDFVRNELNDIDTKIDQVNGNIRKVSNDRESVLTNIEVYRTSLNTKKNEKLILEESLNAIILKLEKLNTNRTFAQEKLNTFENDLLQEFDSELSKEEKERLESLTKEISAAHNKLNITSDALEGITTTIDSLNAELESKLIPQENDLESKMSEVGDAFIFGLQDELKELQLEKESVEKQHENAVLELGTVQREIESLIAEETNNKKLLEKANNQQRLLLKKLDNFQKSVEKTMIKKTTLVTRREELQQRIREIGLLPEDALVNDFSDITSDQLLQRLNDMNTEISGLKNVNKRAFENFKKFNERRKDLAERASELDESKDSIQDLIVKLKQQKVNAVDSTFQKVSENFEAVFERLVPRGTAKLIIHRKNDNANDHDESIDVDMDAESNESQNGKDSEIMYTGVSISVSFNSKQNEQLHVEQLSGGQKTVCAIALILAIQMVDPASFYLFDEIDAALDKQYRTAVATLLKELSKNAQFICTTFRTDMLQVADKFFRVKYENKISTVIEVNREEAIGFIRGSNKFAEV

These are yes or no findings as the source states them, for the method shown. In cells and extracts the contact can be indirect. A yes stands for co-enrichment or nearness to the bait. Other partners may have been found. For part of these data: Tags and fused reporters may be left off the sequences shown.

Holding throughout (test): affinity purification with mass spectrometry
In assay [1] the target is T1, 5FLAG-Scc3 (yeast (budding yeast, Saccharomyces cerevisiae)) (UniProt P40541).
T1 sequence: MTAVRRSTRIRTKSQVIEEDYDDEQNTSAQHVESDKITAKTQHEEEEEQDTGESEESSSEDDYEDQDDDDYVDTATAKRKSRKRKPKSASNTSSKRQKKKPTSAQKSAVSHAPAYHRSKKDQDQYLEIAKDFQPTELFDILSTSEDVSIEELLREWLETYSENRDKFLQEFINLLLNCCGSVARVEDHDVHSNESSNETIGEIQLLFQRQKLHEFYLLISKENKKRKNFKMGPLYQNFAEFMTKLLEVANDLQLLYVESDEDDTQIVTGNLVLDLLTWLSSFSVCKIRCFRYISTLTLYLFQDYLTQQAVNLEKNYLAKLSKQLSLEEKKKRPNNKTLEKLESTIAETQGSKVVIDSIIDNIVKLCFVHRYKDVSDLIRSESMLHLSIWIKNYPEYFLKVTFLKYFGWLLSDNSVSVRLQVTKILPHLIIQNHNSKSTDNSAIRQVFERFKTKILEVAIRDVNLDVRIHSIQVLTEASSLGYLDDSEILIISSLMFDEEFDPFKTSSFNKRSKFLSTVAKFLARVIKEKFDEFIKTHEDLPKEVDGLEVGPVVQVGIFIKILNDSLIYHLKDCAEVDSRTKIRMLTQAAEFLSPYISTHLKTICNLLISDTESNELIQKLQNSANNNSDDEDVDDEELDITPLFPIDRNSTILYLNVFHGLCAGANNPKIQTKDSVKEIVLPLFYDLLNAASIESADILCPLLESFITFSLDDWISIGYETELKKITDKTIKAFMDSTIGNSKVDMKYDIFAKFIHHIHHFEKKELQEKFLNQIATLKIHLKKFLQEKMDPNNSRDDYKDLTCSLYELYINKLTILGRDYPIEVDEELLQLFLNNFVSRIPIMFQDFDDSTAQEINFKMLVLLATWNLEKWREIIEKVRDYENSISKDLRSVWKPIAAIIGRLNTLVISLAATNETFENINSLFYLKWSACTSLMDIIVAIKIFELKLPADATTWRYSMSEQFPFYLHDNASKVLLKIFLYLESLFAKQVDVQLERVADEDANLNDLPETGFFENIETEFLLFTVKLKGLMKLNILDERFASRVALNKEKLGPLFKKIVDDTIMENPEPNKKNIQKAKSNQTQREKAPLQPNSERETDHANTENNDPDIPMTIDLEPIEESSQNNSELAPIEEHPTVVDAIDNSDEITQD

The target in assay [2] is 5FLAG-Scc1 (yeast (budding yeast, Saccharomyces cerevisiae)) (UniProt Q12158).
Assay [3] addresses T2, 5FLAG-Scc3 (yeast (budding yeast, Saccharomyces cerevisiae)), P40541.
T2 chain: T1 sequence
Conditions: remark: other sources report otherwise.

As to Smc3 (from UniProt P47037 1-1230), the binding entry in assay [1] is reported as “binds”. Same read-out and setting: to Scc1 (from UniProt Q12158 1-566) belongs “binds”.

B1: Smc1 (protein, UniProt P32908 1-1225)
chain: MGRLVGLELSNFKSYRGVTKVGFGESNFTSIIGPNGSGKSNMMDAISFVLGVRSNHLRSNILKDLIYRGVLNDENSDDYDNEGAASSNPQSAYVKAFYQKGNKLVELMRIISRNGDTSYKIDGKTVSYKDYSIFLENENILIKAKNFLVFQGDVEQIAAQSPVELSRMFEEVSGSIQYKKEYEELKEKIEKLSKSATESIKNRRRIHGELKTYKEGINKNEEYRKQLDKKNELQKFQALWQLYHLEQQKEELTDKLSALNSEISSLKGKINNEMKSLQRSKSSFVKESAVISKQKSKLDYIFKDKEKLVSDLRLIKVPQQAAGKRISHIEKRIESLQKDLQRQKTYVERFETQLKVVTRSKEAFEEEIKQSARNYDKFKLNENDLKTYNCLHEKYLTEGGSILEEKIAVLNNDKREIQEELERFNKRADISKRRITEELSITGEKLDTQLNDLRVSLNEKNALHTERLHELKKLQSDIESANNQEYDLNFKLRETLVKIDDLSANQRETMKERKLRENIAMLKRFFPGVKGLVHDLCHPKKEKYGLAVSTILGKNFDSVIVENLTVAQECIAFLKKQRAGTASFIPLDTIETELPTLSLPDSQDYILSINAIDYEPEYEKAMQYVCGDSIICNTLNIAKDLKWKKGIRGKLVTIEGALIHKAGLMTGGISGDANNRWDKEEYQSLMSLKDKLLIQIDELSNGQRSNSIRAREVENSVSLLNSDIANLRTQVTQQKRSLDENRLEIKYHNDLIEKEIQPKITELKKKLDDLENTKDNLVKEKEALQNNIFKEFTSKIGFTIKEYENHSGELMRQQSKELQQLQKQILTVENKLQFETDRLSTTQRRYEKAQKDLENAQVEMKSLEEQEYAIEMKIGSIESKLEEHKNHLDELQKKFVTKQSELNSSEDILEDMNSNLQVLKRERDGIKEDIEKFDLERVTALKNCKISNINIPISSETTIDDLPISSTDNEAITISNSIDINYKGLPKKYKENNTDSARKELEQKIHEVEEILNELQPNARALERYDEAEGRFEVINNETEQLKAEEKKILNQFLKIKKKRKELFEKTFDYVSDHLDAIYRELTKNPNSNVELAGGNASLTIEDEDEPFNAGIKYHATPPLKRFKDMEYLSGGEKTVAALALLFAINSYQPSPFFVLDEVDAALDITNVQRIAAYIRRHRNPDLQFIVISLKNTMFEKSDALVGVYRQQQENSSKIITLDLSNYAE
In the case of B1, the binding entry in assay [1] was “binds”.

B2: Pds5 (protein, UniProt Q04264 1-1277)
chain: MAKGAVTKLKFNSPIISTSDQLISTNELLDRLKALHEELASLDQDNTDLTGLDKYRDALVSRKLLKHKDVGIRAFTACCLSDILRLYAPDAPYTDAQLTDIFKLVLSQFEQLGDQENGYHIQQTYLITKLLEYRSIVLLADLPSSNNLLIELFHIFYDPNKSFPARLFNVIGGILGEVISEFDSVPLEVLRLIFNKFLTYNPNEIPEGLNVTSDCGYEVSLILCDTYSNRMSRHLTKYYSEIIHEATNDDNNSRLLTVVVKLHKLVLRLWETVPELINAVIGFIYHELSSENELFRKEATKLIGQILTSYSDLNFVSTHSDTFKAWISKIADISPDVRVEWTESIPQIIATREDISKELNQALAKTFIDSDPRVRRTSVMIFNKVPVTEIWKNITNKAIYTSLLHLAREKHKEVRELCINTMAKFYSNSLNEIERTYQNKEIWEIIDTIPSTLYNLYYINDLNINEQVDSVIFEYLLPFEPDNDKRVHRLLTVLSHFDKKAFTSFFAFNARQIKISFAISKYIDFSKFLNNQESMSSSQGPIVMNKYNQTLQWLASGLSDSTKAIDALETIKQFNDERIFYLLNACVTNDIPFLTFKNCYNELVSKLQTPGLFKKYNISTGASIMPRDIAKVIQILLFRASPIIYNVSNISVLLNLSNNSDAKQLDLKRRILDDISKVNPTLFKDQIRTLKTIIKDLDDPDAEKNDNLSLEEALKTLYKASKTLKDQVDFDDTFFFTKLYDFAVESKPEITKYATKLIALSPKAEETLKKIKIRILPLDLQKDKYFTSHIIVLMEIFKKFPHVLNDDSTDIISYLIKEVLLSNQVVGDSKKEIDWVEDSLLSDTKYSAIGNKVFTLKLFTNKLRSIAPDVPRDELAESFTEKTMKLFFYLIASGGELISEFNKEFYPTPSNYQTKLRCVAGIQVLKLARISNLNNFIKPSDIIKLINLVEDESLPVRKTFLEQLKDYVANELISIKFLPLVFFTAYEPDVELKTTTKIWINFTFGLKSFKKGTIFERALPRLIHAIAHHPDIVGGLDSEGDAYLNALTTAIDYLLFYFDSIAAQENFSLLYYLSERVKNYQDKLVEDEIDEEEGPQKEEAPKKHRPYGQKMYIIGELSQMILLNLKEKKNWQHSAYPGKLNLPSDLFKPFATVQEAQLSFKTYIPESLTEKIQNNIKAKIGRILHTSQTQRQRLQKRLLAHENNESQKKKKKVHHARSQADDEEGDGDRESDSDDDSYSPSNKNETKKGHENIVMKKLRVRKEVDYKDDEDDDIEMT
Consider B2, for which the binding entry in assay [2] is given as “binds”.

B3: Pds5, Q04264 1-1277 (protein)
chain: B2 chain
In the case of B3, the binding result in assay [3] is “binds”.

B4: Scc3 (protein, UniProt P40541 1-1150)
chain: T1 sequence
Regarding B4, in assay [2], the binding result is given as “binds”.
